Laboratory results as given in publication PMC7318079.
No constants are given. Whether binding was seen depends on the method and setting. Binding seen in cells or lysates may run through a third protein. Some binding calls cover weakened binding; strength is not graded here.

Chains of the proteins cited; added tags and fusions are not shown. Residues count along the entry.
UniProt Q9BZS1, residues 1-417: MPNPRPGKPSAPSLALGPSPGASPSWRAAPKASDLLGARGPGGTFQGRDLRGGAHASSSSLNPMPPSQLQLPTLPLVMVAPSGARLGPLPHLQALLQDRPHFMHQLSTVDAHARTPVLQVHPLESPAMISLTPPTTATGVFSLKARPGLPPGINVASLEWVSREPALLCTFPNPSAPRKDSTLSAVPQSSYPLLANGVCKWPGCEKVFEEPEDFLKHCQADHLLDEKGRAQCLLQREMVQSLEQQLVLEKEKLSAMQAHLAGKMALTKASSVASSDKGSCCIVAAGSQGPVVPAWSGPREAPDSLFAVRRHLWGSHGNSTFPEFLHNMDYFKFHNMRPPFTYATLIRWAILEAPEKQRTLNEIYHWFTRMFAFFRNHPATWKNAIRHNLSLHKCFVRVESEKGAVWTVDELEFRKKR
UniProt Q00987: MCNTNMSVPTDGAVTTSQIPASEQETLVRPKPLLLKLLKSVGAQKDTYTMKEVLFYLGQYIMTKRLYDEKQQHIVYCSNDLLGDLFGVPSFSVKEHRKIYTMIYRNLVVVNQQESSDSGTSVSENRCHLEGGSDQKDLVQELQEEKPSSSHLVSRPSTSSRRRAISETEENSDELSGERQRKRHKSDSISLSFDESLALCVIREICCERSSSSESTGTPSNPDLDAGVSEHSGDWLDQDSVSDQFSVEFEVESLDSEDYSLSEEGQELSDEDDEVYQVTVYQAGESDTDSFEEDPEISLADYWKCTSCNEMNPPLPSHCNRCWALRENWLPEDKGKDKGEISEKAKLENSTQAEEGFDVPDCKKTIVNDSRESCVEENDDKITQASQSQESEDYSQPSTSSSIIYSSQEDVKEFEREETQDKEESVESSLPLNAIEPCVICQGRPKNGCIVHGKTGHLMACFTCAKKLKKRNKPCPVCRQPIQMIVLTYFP

Experiments:
[1] = target: FOXP3 (forkhead box P3), endogenous in human Treg cells (human (endogenous in iTreg cells)) (UniProt Q9BZS1); experiment: co-IP; endogenous IP from human iTreg cell lysate with anti-MDM2 or anti-FOXP3 antibodies; RIPA buffer, 4°C, protein A/G Plus-agarose, six washes; Western blot
[2] = target: Myc-tagged FOXP3 (forkhead box P3) (human) (UniProt Q9BZS1); experiment: co-IP; HEK293T cells co-transfected with Myc-FOXP3 and Flag-MDM2, harvested after 48 h; reciprocal IP with anti-Myc or anti-Flag antibodies; RIPA buffer (50 mM Tris-HCl pH 7.5, 135 mM NaCl, 0.5% sodium deoxycholate, 10% glycerol, 1 mM EDTA, 0.5% NP-40), 4°C, protein A/G Plus-agarose, six washes; Western blot

Substance	binding [1]	binding [2]
MDM2 (mouse double minute 2 homolog), endogenous in human Treg cells (from UniProt Q00987 1-491)	binds	–
Flag-tagged MDM2 (mouse double minute 2 homolog), wild type (from UniProt Q00987 1-491)	–	binds
